# Reference: publication PMC7915196
# Protein sequences, listed by entry. Tags and fused reporters are not part of them.
# UniProt P05412: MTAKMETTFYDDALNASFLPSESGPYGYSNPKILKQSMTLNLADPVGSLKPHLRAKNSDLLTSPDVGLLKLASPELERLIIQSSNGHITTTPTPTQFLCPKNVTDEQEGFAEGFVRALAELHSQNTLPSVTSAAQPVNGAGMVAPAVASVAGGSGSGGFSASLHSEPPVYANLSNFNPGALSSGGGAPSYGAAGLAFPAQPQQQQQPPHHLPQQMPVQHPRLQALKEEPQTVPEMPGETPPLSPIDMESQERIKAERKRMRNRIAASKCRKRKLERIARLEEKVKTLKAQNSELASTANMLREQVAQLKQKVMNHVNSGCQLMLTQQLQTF
# UniProt Q04206: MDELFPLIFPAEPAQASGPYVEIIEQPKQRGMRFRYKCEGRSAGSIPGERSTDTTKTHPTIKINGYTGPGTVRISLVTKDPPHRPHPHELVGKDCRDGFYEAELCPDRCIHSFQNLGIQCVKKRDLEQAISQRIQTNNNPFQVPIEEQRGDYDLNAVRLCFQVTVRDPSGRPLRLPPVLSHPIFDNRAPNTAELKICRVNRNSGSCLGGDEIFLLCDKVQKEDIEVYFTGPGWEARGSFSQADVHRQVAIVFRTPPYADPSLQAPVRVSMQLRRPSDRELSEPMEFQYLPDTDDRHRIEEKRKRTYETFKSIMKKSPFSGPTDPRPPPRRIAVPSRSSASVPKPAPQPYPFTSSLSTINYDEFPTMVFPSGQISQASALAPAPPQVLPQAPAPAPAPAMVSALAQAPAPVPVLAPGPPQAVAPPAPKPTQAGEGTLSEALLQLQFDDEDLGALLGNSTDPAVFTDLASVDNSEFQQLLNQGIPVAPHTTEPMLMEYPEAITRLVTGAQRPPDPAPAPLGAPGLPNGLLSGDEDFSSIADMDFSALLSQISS
# UniProt P38936: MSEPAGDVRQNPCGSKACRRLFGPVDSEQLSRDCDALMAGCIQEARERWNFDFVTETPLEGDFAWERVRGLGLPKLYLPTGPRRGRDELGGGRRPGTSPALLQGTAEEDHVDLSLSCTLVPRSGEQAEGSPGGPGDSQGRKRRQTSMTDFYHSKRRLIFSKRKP
# UniProt P08047: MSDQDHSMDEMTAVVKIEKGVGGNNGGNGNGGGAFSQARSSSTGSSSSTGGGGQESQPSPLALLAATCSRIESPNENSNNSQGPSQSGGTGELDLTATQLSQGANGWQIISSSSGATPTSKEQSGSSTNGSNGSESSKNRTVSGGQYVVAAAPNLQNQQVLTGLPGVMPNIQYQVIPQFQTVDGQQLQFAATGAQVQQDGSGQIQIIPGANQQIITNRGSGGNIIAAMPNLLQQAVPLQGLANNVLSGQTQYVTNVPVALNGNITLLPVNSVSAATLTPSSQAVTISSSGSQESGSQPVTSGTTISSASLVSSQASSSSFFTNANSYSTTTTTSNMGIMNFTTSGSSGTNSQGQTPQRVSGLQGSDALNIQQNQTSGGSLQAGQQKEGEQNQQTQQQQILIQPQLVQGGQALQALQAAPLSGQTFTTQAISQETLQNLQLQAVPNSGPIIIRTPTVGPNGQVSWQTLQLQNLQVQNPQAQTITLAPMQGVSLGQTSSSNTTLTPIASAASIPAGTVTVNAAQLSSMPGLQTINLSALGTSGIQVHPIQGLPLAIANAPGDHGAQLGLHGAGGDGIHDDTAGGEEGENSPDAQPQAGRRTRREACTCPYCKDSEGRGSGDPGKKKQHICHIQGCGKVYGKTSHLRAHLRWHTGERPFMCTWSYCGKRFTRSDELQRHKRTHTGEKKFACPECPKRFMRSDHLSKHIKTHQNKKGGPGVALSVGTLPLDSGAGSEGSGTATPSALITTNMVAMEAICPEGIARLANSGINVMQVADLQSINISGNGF
# No constants are given. Whether binding was seen depends on the method and setting. In cells and extracts the contact can be indirect. Some results given as binding are weak or reduced against the parent protein; the word gives no strength.
# Experiments:
# [1] = molecular target: c-Jun (human (endogenous in KYSE150)) (UniProt P05412); test: co-IP; nuclear protein-enriched extracts of KYSE150 cells, untreated or treated with MLN4924 (1 µM, 24 h) or TNF-α (30 ng/mL, 1 h); rabbit anti-c-Jun antibody; Western blot
# [2] = molecular target: nuclear factor kappa B p65 subunit (NFκB/p65) (human (endogenous in KYSE150)) (UniProt Q04206); test: co-IP; nuclear extracts (500 µg/mL) of KYSE150 cells, untreated or treated with MLN4924 (1 µM, 24 h) or TNF-α (30 ng/mL, 1 h); anti-NFκB/p65 antibody overnight at 4 °C, Protein G magnetic beads, washed with 10 mM HEPES pH 7.6; Western blot
Substance,binding [1],binding [2]
cyclin dependent kinase inhibitor 1A (CDKN1A/p21) (from UniProt P38936 1-164),,binds
phospho-c-Jun (Ser73) (from UniProt P05412 1-331),,binds
c-Jun (from UniProt P05412 1-331),,binds

# The remaining lines, values ahead:
binding [1],binding [2],Substance
binds,,nuclear factor kappa B p65 subunit (NFκB/p65) (from UniProt Q04206 1-551)
,binds,SP1 (from UniProt P08047 1-785)
